Here are results for 65 variants from the supplement of paper PMC7125110.

First the molecules themselves.
B1: glmS ribozyme (parent)
chain: AUAAAAGCGCCAGAACUACAGAAAUGUAGUUGACGAGGAGGAGGUUUAUCGAAUUUUCGGCGGAUGCCUCCAAA

± gives the standard error. Many of these values have a large error.

The variants in the first data set derive from B1. Nature of the data set: kcat; higher = faster cleavage; RNA array. The conditions noted are these: with glucosamine-6-phosphate. Put shortly:
(§1)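 Over ~14 h at 37 °C, tiles were imaged as glucosamine-6-phosphate (40 μM to 10 mM) in HEPES/KCl/Mg(OAc)2 buffer flowed across sequenced MiSeq chips. The chips carried barcoded ribozyme variants transcribed in situ by E. coli RNA polymerase and tracked with a hybridised Cy3 probe. After normalisation to baseline and to non-cleaving reference variants, one- or two-exponential decay fits of per-tile medians gave kobs. kcat and KM followed from weighted Michaelis–Menten fits across concentrations.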
For the variant A39G C58G, the kcat came out at 0.000195 ± 2.9e-05 s⁻¹.
As to U31G U55G, the kcat was determined as 0.0235 ± 0.016 s⁻¹.
For the variant G44C C67A, the kcat was 0.00866 ± 0.0045 s⁻¹.
Turning to U30A U65C, the kcat amounted to 0.000105 ± 8e-06 s⁻¹.
As to G37C G38A, the kcat worked out at 1.34e-05 ± 1e-05 s⁻¹.
Consider U46C A53G, for which the kcat was determined as 0.00366 ± 0.0005 s⁻¹.
With A48U A52G, the kcat turned out to be 1.32e-05 ± 2.9e-06 s⁻¹.
With G41C C70G, the kcat is 0.0433 ± 0.038 s⁻¹.
Take G37U C70U C71U: the kcat was 1.13e-05 ± 3.2e-06 s⁻¹.
Still for that read-out and setting: next, A33C A53G: 0.000631 ± 0.0004 s⁻¹; U55G U56A: 0.0188 ± 0.012 s⁻¹; G41A C67G C70U: 0.00267 ± 0.0014 s⁻¹.
As to C16U U57G U65A C70A, the kcat was found to be 3.5e-05 ± 3.4e-05 s⁻¹.
The same measure, in the same setting: next, A39G C68U: 0.00365 ± 0.0023 s⁻¹; U31G G32A: 0.00438 ± 0.0035 s⁻¹.
As for A52G C58U, the catalytic constant (kcat) came to 3.14e-05 ± 2.5e-05 s⁻¹.
In the case of A15G U45A, the kcat stood at 0.152 ± 0.093 s⁻¹.
With G29C G62U, the kcat was < 1e-05 s⁻¹.
With C50G U65G, the kcat stood at 5.8e-05 ± 2.4e-05 s⁻¹.
With U54C C68U, the kcat is 0.00165 ± 0.00093 s⁻¹.
Turning to A14G U54G, the kcat was 0.0236 ± 0.018 s⁻¹.
For U31A C67A, the kcat was 0.00369 ± 0.0019 s⁻¹.
Take A14C G32U: the kcat was determined as 0.0014 ± 6.9e-05 s⁻¹.
As for G59C C70A, the kcat is 1.45e-05 ± 1.4e-05 s⁻¹.
Regarding G35A U47A C50G U54G, the kcat was found to be 5.89e-05 ± 4.8e-05 s⁻¹.
On to U30G A42G, for which the kcat was found to be 0.0358 ± 0.028 s⁻¹.
As to G60U G66C, the kcat was < 1e-05 s⁻¹.
Still for that read-out and setting: the figure for C61U C67G is 1.37e-05 ± 7.2e-06 s⁻¹; for A33U G51A it is < 1e-05 s⁻¹; for A14G G66A it is 0.00673 ± 0.0035 s⁻¹.
Turning to A14G U49A, the kcat was 3.99e-05 ± 1e-06 s⁻¹.
As for G37U C50U C70U, the kcat is 3.99e-05 ± 1.4e-05 s⁻¹.
On the same count and under the same terms, the figure for G37U G66C C68A is 2.9e-05 ± 2.2e-05 s⁻¹; for A14G A53G it is 0.0255 ± 0.013 s⁻¹.
With U30C G37U C58A C68G, the kcat worked out at 7.67e-05 ± 5.1e-05 s⁻¹.
For the variant G43C U45G, the kcat was determined as 0.00237 ± 0.00082 s⁻¹.
As for U45G G66A, the kcat was 0.0181 ± 0.015 s⁻¹.
As to A15U C71U, the catalytic constant (kcat) was determined as 0.0101 ± 0.0091 s⁻¹.

Variants of B1 are the subject of another data set. In words: KM; higher = weaker cofactor use; RNA array. The conditions noted are these: with glucosamine-6-phosphate. Put shortly:
as §1
Regarding A39G C58G, the Michaelis constant (KM) was 3340 ± 1100 µM.
For U31G U55G, the KM came to 3760 ± 3100 µM.
Regarding G44C C67A, the KM worked out at 2470 ± 1500 µM.
The same measure, in the same setting: the figure for U30A U65C is 2860 ± 590 µM; for G13U U31G it is 2760 ± 1900 µM; for A12C C71G it is 689 ± 460 µM.
Still for that read-out and setting: the figure for U46C A53G is 1430 ± 280 µM; for A14C A15C it is 2740 ± 760 µM.
In the case of A12U G59U, the KM came out at 1690 ± 860 µM.
As for A12C A53G, the KM came out at 5160 ± 3000 µM.
Turning to C11G U30A, the KM was found to be 14800 ± 1200 µM.
In the case of A33C A53G, the KM was found to be 17400 ± 14000 µM.
Regarding A6C U54G, the KM was determined as 4980 ± 410 µM.
Still for that read-out and setting: next, A15U: 1950 ± 440 µM; U55G U56A: 3920 ± 3300 µM.
Still for that read-out and setting: next, A15G G29A: 833 ± 570 µM.
Same read-out and setting: the figure for G41A C67G C70U is 6240 ± 4500 µM; for A39G C68U it is 265 ± 230 µM; for A15G U45A it is 5160 ± 3500 µM.
In the case of U54C C68U, the KM was 233 ± 210 µM.
A14G U54G: the KM was found to be 973 ± 960 µM.
Same read-out and setting: the figure for U31A C67A is 1610 ± 1100 µM.
Same read-out and setting: the figure for A12C A48G is 1260 ± 810 µM; for A14C G32U it is 3610 ± 300 µM; for U30G A42G it is 6750 ± 6400 µM.
On the same count and under the same terms, next, A12C G29U U47G: 4280 ± 2100 µM.
A14U G59U: the KM was 813 ± 500 µM.
For the variant A14U G59A, the KM is 9990 ± 1000 µM.
Take G7U C50G C68G: the KM amounted to 26.5 ± 18 µM.
Take A6G A39G: the KM was found to be 6330 ± 3500 µM.
On to A6G A39U, for which the Michaelis constant (KM) came out at 1490 ± 84 µM.
As for A33U G51A, the Michaelis constant (KM) worked out at 394 ± 130 µM.
Consider C11U U45G U54A, for which the KM stood at 2720 ± 1800 µM.
The same measure, in the same setting: next, C11A C71A: 3970 ± 3500 µM; C11A C71G: 249 ± 160 µM; A14G G66A: 242 ± 180 µM.
With A14G U49G, the KM was found to be 1530 ± 910 µM.
On to A14G U49A, for which the KM was found to be 773 ± 130 µM.
For the variant A15G U56A, the KM turned out to be 1700 ± 790 µM.
The same measure, in the same setting: next, A14G A53G: 635 ± 440 µM; G43C U45G: 1950 ± 980 µM; A15U C71G: 1610 ± 810 µM.
As to A6G U31G, the KM amounted to 4990 ± 1600 µM.
Consider C10U A53G, for which the KM was found to be 6420 ± 600 µM.
The same measure, in the same setting: the figure for A12U U54G is 1130 ± 680 µM.
The same measure, in the same setting: next, A14U U56A: 2190 ± 1400 µM; C11U U31C: 1620 ± 460 µM.

The variants in the next data set derive from B1. Nature of the data set: self-cleavage kobs at 640 uM GlcN6P; higher = faster cleavage; RNA array. Conditions: with glucosamine-6-phosphate. Summed up:
as §1
In the case of U30A U65C, the “self-cleavage kobs at 640 uM GlcN6P” value came to 2.31e-05 ± 1.9e-05 s⁻¹.
As for C16U U57G U65A C70A, the “self-cleavage kobs at 640 uM GlcN6P” value was found to be 5.74e-05 ± 3.6e-05 s⁻¹.
With G59C C70A, the “self-cleavage kobs at 640 uM GlcN6P” value amounted to 0.000174 ± 9e-05 s⁻¹.
With G7U C50G C68G, the “self-cleavage kobs at 640 uM GlcN6P” value is 0.000434 ± 0.00023 s⁻¹.
On to C11A C71A, for which the “self-cleavage kobs at 640 uM GlcN6P” value came out at 2.74e-05 ± 1.4e-05 s⁻¹.
Regarding C11A C71G, the “self-cleavage kobs at 640 uM GlcN6P” value worked out at 3.09e-05 ± 1.8e-05 s⁻¹.

In a further data set the parent is B1. In words: self-cleavage kobs at 40 uM GlcN6P; higher = faster cleavage; RNA array. The conditions noted are these: with glucosamine-6-phosphate. Put shortly:
as §1
Turning to U31G G32A, the “self-cleavage kobs at 40 uM GlcN6P” value was 1.39e-05 ± 1.1e-05 s⁻¹.
As to A14C G32U, the “self-cleavage kobs at 40 uM GlcN6P” value stood at 2.17e-05 ± 1.4e-05 s⁻¹.
On to G35A U47A C50G U54G, for which the “self-cleavage kobs at 40 uM GlcN6P” value amounted to 3.13e-05 ± 2.3e-05 s⁻¹.
Consider A12C G29U U47G, for which the “self-cleavage kobs at 40 uM GlcN6P” value came to 1.69e-05 ± 1.6e-05 s⁻¹.
Still for that read-out and setting: the figure for A6G A39G is 3.03e-05 ± 1.6e-05 s⁻¹.
Take C11A C71G: the “self-cleavage kobs at 40 uM GlcN6P” value was 2.41e-05 ± 2e-05 s⁻¹.
Still for that read-out and setting: next, A15U C71G: 1.97e-05 ± 1e-05 s⁻¹.

In a further data set the parent is B1. In words: self-cleavage kobs at 160 uM GlcN6P; higher = faster cleavage; RNA array. The conditions noted are these: with glucosamine-6-phosphate. Put shortly:
as §1
On to G59C C70A, for which the “self-cleavage kobs at 160 uM GlcN6P” value came out at 1.68e-05 ± 1.7e-05 s⁻¹.
C11A C71G: the “self-cleavage kobs at 160 uM GlcN6P” value turned out to be 2.42e-05 ± 1.6e-05 s⁻¹.
Same read-out and setting: next, G37U G66C C68A: 2.05e-05 ± 1.9e-05 s⁻¹.

Variants of B1 are the subject of a further data set. In words: self-cleavage kobs at 2500 uM GlcN6P; higher = faster cleavage; RNA array. The conditions noted are these: with glucosamine-6-phosphate. Summed up:
as §1
As for A14G U49A, the “self-cleavage kobs at 2500 uM GlcN6P” value was 3.19e-05 ± 1.9e-05 s⁻¹.
In the case of G37U C50U C70U, the “self-cleavage kobs at 2500 uM GlcN6P” value came out at 4.92e-05 ± 2.7e-05 s⁻¹.
Same read-out and setting: next, G37U G66C C68A: 3.28e-05 ± 2.7e-05 s⁻¹.

Variants of B1 are the subject of another data set. In words: self-cleavage kobs at 10000 uM GlcN6P; higher = faster cleavage; RNA array. Conditions: with glucosamine-6-phosphate. Summed up:
as §1
As to U45G G66A, the “self-cleavage kobs at 10000 uM GlcN6P” value worked out at 0.0679 ± 0.048 s⁻¹.
